Reference: PMC10670506
Results are given in words; binding and its absence hold for the method and conditions named. In cells and extracts the contact can be indirect. Here binding means that the protein was enriched with, or labelled near, the bait; the list need not be complete. Tags and fused reporters may be left off the sequences shown.

Each binder was assayed against T1, N-terminal Strep/FLAG-tagged human BBS1 wild type (human) (UniProt Q8NFJ9) (assay: affinity purification with mass spectrometry; Strep/FLAG-tagged BBS1 bait transfected into HEK293T; lysis in 1x TBS, 0.5% Nonidet P40; Strep-based purification on beads for 90 min, Strep elution; label-free quantification against C-terminal Strep/FLAG-tagged RAF1 control; 9 biological replicates).
T1 sequence: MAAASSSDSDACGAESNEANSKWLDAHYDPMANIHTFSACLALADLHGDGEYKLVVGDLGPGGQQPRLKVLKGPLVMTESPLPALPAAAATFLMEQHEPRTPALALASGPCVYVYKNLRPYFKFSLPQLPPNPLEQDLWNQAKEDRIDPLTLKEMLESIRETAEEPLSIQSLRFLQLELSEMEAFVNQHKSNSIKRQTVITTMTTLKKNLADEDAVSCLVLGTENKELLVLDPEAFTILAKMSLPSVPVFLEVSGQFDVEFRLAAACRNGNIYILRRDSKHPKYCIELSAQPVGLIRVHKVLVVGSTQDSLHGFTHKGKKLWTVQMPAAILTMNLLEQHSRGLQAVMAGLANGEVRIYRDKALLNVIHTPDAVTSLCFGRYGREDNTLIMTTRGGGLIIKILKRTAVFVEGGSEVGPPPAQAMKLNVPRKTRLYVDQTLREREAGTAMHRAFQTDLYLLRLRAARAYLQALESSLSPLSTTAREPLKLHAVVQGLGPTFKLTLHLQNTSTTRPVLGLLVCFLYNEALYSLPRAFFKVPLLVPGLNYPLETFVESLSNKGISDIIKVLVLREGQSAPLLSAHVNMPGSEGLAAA

| Binder | binding |
| --- | --- |
| BBS2 (protein, UniProt Q9BXC9 1-721) MLLPVFTLKLRHKISPRMVAIGRYDGTHPCLAAATQTGKVFIHNPHTRNQHVSASRVFQSPLESDVSLLSINQAVSCLTAGVLNPELGYDALLVGTQTNLLAYDVYNNSDLFYREVADGANAIVLGTLGDISSPLAIIGGNCALQGFNHEGSDLFWTVTGDNVNSLALCDFDGDGKKELLVGSEDFDIRVFKEDEIVAEMTETEIVTSLCPMYGSRFGYALSNGTVGVYDKTSRYWRIKSKNHAMSIHAFDLNSDGVNELITGWSNGKVDARSDRTGEVIFKDNFSSAIAGVVEGDYRMDGHIQLICCSVDGEIRGYLPGTAEMRGNLMDTSAEQDLIRELSQKKQNLLLELRNYEENAKAELASPLNEADGHRGIIPANTRLHTTLSVSLGNETQTAHTELRISTSNDTIIRAVLIFAEGIFTGESHVVHPSIHNLSSSICIPIVPPKDVPVDLHLKAFVGYRSSTQFHVFESTRQLPRFSMYALTSLDPASEPISYVNFTIAERAQRVVVWLGQNFLLPEDTHIQNAPFQVCFTSLRNGGHLHIKIKLSGEITINTDDIDLAGDIIQSMASFFAIEDLQVEADFPVYFEELRKVLVKVDEYHSVHQKLSADMADHSNLIRSLLVGAEDARLMRDMKTMKSRYMELYDLNRDLLNGYKIRCNNHTELLGNLKAVNQAIQRAGRLRVGKPKNQVITACRDAIRSNNINTLFKIMRVGTASS | binds |
| BBS4 (protein, UniProt Q96RK4 1-519) MAEERVATRTQFPVSTESQKPRQKKAPEFPILEKQNWLIHLHYIRKDYEACKAVIKEQLQETQGLCEYAIYVQALIFRLEGNIQESLELFQTCAVLSPQSADNLKQVARSLFLLGKHKAAIEVYNEAAKLNQKDWEISHNLGVCYIYLKQFNKAQDQLHNALNLNRHDLTYIMLGKIHLLEGDLDKAIEVYKKAVEFSPENTELLTTLGLLYLQLGIYQKAFEHLGNALTYDPTNYKAILAAGSMMQTHGDFDVALTKYRVVACAVPESPPLWNNIGMCFFGKKKYVAAISCLKRANYLAPFDWKILYNLGLVHLTMQQYASAFHFLSAAINFQPKMGELYMLLAVALTNLEDIENAKRAYAEAVHLDKCNPLVNLNYAVLLYNQGEKKNALAQYQEMEKKVSLLKDNSSLEFDSEMVEMAQKLGAALQVGEALVWTKPVKDPKSKHQTTSTSKPASFQQPLGSNQALGQAMSSAAAYRTLPSGAGGTSQFTKPPSLPLEPEPAVESSPTETSEQIREK | binds |
| BBS5 (protein, UniProt Q8N3I7 1-341) MSVLDALWEDRDVRFDLSAQQMKTRPGEVLIDCLDSIEDTKGNNGDRGRLLVTNLRILWHSLALSRVNVSVGYNCILNITTRTANSKLRGQTEALYILTKCNSTRFEFIFTNLVPGSPRLFTSVMAVHRAYETSKMYRDFKLRSALIQNKQLRLLPQEHVYDKINGVWNLSSDQGNLGTFFITNVRIVWHANMNDSFNVSIPYLQIRSIKIRDSKFGLALVIESSQQSGGYVLGFKIDPVEKLQESVKEINSLHKVYSASPIFGVDYEMEEKPQPLEALTVEQIQDDVEIDSDGHTDAFVAYFADGNKQQDREPVFSEELGLAIEKLKDGFTLQGLWEVMS | binds |
| BBS9 (protein, UniProt Q3SYG4 1-887) MSLFKARDWWSTILGDKEEFDQGCLCLANVDNSGNGQDKIIVGSFMGYLRIFSPHPAKTGDGAQAEDLLLEVDLRDPVLQVEVGKFVSGTEMLHLAVLHSRKLCVYSVSGTLGNVEHGNQCQMKLMYEHNLQRTACNMTYGSFGGVKGRDLICIQSMDGMLMVFEQESYAFGRFLPGFLLPGPLAYSSRTDSFLTVSSCQQVESYKYQVLAFATDADKRQETEQQKLGSGKRLVVDWTLNIGEQALDICIVSFNQSASSVFVLGERNFFCLKDNGQIRFMKKLDWSPSCFLPYCSVSEGTINTLIGNHNNMLHIYQDVTLKWATQLPHIPVAVRVGCLHDLKGVIVTLSDDGHLQCSYLGTDPSLFQAPNVQSRELNYDELDVEMKELQKIIKDVNKSQGVWPMTEREDDLNVSVVVSPNFDSVSQATDVEVGTDLVPSVTVKVTLQNRVILQKAKLSVYVQPPLELTCDQFTFEFMTPDLTRTVSFSVYLKRSYTPSELEGNAVVSYSRPTDRNPDGIPRVIQCKFRLPLKLICLPGQPSKTASHKITIDTNKSPVSLLSLFPGFASQSDDDQVNVMGFHFLGGARITVLASKTSQRYRIQSEQFEDLWLITNELILRLQEYFEKQGVKDFACSFSGSIPLQEYFELIDHHFELRINGEKLEELLSERAVQFRAIQRRLLARFKDKTPAPLQHLDTLLDGTYKQVIALADAVEENQGNLFQSFTRLKSATHLVILLIALWQKLSADQVAILEAAFLPLQEDTQELGWEETVDAAISHLLKTCLSKSSKEQALNLNSQLNIPKDTSQLKKHITLLCDRLSKGGRLCLSTDAAAPQTMVMPGGCTTIPESDLEERSVEQDSTELFTNHRHLTAETPRPEVSPLQGVSE | binds |
| TTC8 (protein, UniProt Q8TAM2 1-541) MSSEMEPLLLAWSYFRRRKFQLCADLCTQMLEKSPYDQEPDPELPVHQAAWILKARALTEMVYIDEIDVDQEGIAEMMLDENAIAQVPRPGTSLKLPGTNQTGGPSQAVRPITQAGRPITGFLRPSTQSGRPGTMEQAIRTPRTAYTARPITSSSGRFVRLGTASMLTSPDGPFINLSRLNLTKYSQKPKLAKALFEYIFHHENDVKTIHLEDVVLHLGIYPFLLRNKNHIEKNALDLAALSTEHSQYKDWWWKVQIGKCYYRLGMYREAEKQFKSALKQQEMVDTFLYLAKVYVSLDQPVTALNLFKQGLDKFPGEVTLLCGIARIYEEMNNMSSAAEYYKEVLKQDNTHVEAIACIGSNHFYSDQPEIALRFYRRLLQMGIYNGQLFNNLGLCCFYAQQYDMTLTSFERALSLAENEEEAADVWYNLGHVAVGIGDTNLAHQCFRLALVNNNNHAEAYNNLAVLEMRKGHVEQARALLQTASSLAPHMYEPHFNFATISDKIGDLQRSYVAAQKSEAAFPDHVDTQHLIKQLRQHFAML | binds |
